Assay results as given in paper PMC9477735, “Phosphorylation of muramyl peptides by NAGK is required for NOD2 activation” (Nature, 2022).
No constants are given. Whether binding was seen depends on the method and setting. In cells and extracts the contact can be indirect. Some entries that bind do so weakly or less than the wild type.

By UniProt entry, the sequences of proteins in these tests, tags left out.
UniProt Q9HC29: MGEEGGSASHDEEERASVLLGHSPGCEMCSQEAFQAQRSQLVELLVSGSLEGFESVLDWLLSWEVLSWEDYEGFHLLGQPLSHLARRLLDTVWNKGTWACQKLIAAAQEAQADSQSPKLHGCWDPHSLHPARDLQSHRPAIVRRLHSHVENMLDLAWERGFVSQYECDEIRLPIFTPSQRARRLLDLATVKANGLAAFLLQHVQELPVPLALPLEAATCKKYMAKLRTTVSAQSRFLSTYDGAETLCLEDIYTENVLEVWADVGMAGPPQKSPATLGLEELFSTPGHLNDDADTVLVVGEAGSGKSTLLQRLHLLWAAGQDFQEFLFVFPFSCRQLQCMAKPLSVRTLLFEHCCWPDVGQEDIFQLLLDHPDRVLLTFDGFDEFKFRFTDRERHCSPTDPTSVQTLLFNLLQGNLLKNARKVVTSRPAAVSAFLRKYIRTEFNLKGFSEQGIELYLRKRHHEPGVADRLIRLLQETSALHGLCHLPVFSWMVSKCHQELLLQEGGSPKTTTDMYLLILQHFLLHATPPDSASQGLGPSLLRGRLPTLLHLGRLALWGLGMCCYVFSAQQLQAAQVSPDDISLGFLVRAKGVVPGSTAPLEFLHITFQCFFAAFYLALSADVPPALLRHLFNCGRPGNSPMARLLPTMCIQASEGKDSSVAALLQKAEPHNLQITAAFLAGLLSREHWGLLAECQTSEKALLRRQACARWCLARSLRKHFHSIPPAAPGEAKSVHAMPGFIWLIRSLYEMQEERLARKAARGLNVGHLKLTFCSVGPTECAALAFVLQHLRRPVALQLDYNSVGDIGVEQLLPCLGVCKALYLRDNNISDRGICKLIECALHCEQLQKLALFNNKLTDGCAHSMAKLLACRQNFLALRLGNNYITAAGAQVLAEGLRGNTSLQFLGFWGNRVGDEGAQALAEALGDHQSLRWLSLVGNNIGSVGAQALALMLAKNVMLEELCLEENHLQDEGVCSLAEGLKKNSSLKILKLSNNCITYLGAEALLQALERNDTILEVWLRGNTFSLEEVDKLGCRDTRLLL

What was measured:
[1] = biological target: nucleotide-binding oligomerization domain-containing protein 2 (NOD2), N-terminal NanoBiT fusion constructs (human) (UniProt Q9HC29); assay: split reporter; SmBiT-NOD2 and LgBiT-NOD2 co-transfected (30 ng of each construct) in wild-type HEK 293T cells; stimulated with 200 ng/ml L18-MDP for 24 h; NanoGlo luminescence, relative response ratio against positive and negative controls
[2] = biological target: nucleotide-binding oligomerization domain-containing protein 2 (NOD2), N-terminal NanoBiT fusion constructs (human) (UniProt Q9HC29); assay: split reporter; SmBiT-NOD2 and LgBiT-NOD2 co-transfected (30 ng of each construct) in NAGK-knockout HEK 293T cells; stimulated with 200 ng/ml L18-MDP for 24 h; NanoGlo luminescence, relative response ratio against positive and negative controls

- binding [1]: binds
Substance: nucleotide-binding oligomerization domain-containing protein 2 (NOD2), N-terminal NanoBiT fusion constructs (from UniProt Q9HC29 1-1040)
- binding [2]: no binding (condition: in NAGK-knockout HEK 293T cells)
